The target of experiment [1] is T1, USP40-V5 (in HEK293 cells) (human) (UniProt Q9NVE5).
T1 sequence: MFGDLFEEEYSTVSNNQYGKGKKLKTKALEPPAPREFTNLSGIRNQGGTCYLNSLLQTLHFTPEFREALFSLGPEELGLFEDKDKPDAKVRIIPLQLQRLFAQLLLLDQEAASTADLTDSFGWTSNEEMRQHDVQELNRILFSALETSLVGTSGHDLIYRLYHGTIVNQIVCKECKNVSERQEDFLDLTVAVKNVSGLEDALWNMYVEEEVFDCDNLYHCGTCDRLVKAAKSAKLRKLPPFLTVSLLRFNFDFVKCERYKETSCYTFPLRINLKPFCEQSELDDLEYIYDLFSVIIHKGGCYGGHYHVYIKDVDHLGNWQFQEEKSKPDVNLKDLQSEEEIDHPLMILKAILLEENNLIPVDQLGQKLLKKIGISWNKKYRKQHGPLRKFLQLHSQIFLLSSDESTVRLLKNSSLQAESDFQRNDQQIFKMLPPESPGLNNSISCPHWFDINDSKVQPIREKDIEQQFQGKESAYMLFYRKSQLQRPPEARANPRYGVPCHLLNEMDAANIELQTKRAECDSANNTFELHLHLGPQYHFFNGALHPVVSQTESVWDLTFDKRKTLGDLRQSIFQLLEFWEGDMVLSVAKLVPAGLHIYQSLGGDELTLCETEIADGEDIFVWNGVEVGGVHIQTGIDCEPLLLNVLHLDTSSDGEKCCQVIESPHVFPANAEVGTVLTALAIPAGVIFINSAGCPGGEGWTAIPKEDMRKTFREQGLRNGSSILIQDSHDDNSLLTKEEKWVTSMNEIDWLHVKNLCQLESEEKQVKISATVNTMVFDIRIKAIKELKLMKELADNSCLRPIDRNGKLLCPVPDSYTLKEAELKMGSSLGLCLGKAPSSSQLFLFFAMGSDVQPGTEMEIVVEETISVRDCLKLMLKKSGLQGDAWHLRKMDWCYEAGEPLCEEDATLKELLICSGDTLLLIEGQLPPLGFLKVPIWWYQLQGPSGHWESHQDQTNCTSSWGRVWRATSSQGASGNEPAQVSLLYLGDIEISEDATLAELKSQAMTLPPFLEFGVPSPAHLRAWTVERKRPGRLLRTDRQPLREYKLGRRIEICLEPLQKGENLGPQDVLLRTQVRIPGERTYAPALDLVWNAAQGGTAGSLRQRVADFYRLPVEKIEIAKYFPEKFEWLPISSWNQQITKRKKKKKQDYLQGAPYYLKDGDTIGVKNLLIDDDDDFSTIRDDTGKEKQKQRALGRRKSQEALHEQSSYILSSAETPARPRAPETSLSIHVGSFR
As to the kind of experiment: co-IP; HEK293 cells cotransfected with USP40-V5 and HA-tagged N- or C-terminal deletion mutants of HSP90β for 48 h; IP with anti-V5, immunoblot with anti-HA.

The target of experiment [2] is Heat shock protein HSP 90-beta (endogenous, HLMVEC) (human (endogenous in HLMVEC)) (UniProt P08238). As to the kind of experiment: co-IP; HLMVEC lysates (untransfected, or transfected with empty vector or Flag-USP40); IP with anti-USP40 or anti-HSP90β antibody, immunoblot; cells untreated or treated with LPS (0.2 μg/ml, 30 min or 1 h) or TNFα (10 ng/ml, 30 min). A general note: In western blotting, separated proteins are transferred to a membrane and probed.

For experiment [3], the target named is HA-tagged wild-type HSP90β (UniProt P08238). As to the kind of experiment: co-IP; HEK293 cells cotransfected with Flag-USP40 and HA-tagged HSP90β (wild type or mutants) for 48 h; IP with anti-HA, immunoblot with the indicated antibodies.
The target in experiment [4] is HA-tagged HSP90β^∆402-406 (UniProt P08238). The experiment is described as above.
The target of experiment [5] is HA-tagged dominant-negative (D88N) HSP90β mutant (UniProt P08238). The experiment is described as above.

No constants are given. Whether binding was seen depends on the method and setting. Binding seen in cells or lysates may run through a third protein. Some binding calls cover weakened binding; strength is not graded here. Tags and fused reporters may be left off the sequences shown.

Regarding “HA-tagged N-terminal fragment (1-325 aa) of HSP90β (from UniProt P08238 1-325) (domain or fragment)”, the binding result in experiment [1] is given as “no binding”.

B1: USP40 (endogenous, HLMVEC) (enzyme, UniProt Q9NVE5 1-1235)
chain: MFGDLFEEEYSTVSNNQYGKGKKLKTKALEPPAPREFTNLSGIRNQGGTCYLNSLLQTLHFTPEFREALFSLGPEELGLFEDKDKPDAKVRIIPLQLQRLFAQLLLLDQEAASTADLTDSFGWTSNEEMRQHDVQELNRILFSALETSLVGTSGHDLIYRLYHGTIVNQIVCKECKNVSERQEDFLDLTVAVKNVSGLEDALWNMYVEEEVFDCDNLYHCGTCDRLVKAAKSAKLRKLPPFLTVSLLRFNFDFVKCERYKETSCYTFPLRINLKPFCEQSELDDLEYIYDLFSVIIHKGGCYGGHYHVYIKDVDHLGNWQFQEEKSKPDVNLKDLQSEEEIDHPLMILKAILLEENNLIPVDQLGQKLLKKIGISWNKKYRKQHGPLRKFLQLHSQIFLLSSDESTVRLLKNSSLQAESDFQRNDQQIFKMLPPESPGLNNSISCPHWFDINDSKVQPIREKDIEQQFQGKESAYMLFYRKSQLQRPPEARANPRYGVPCHLLNEMDAANIELQTKRAECDSANNTFELHLHLGPQYHFFNGALHPVVSQTESVWDLTFDKRKTLGDLRQSIFQLLEFWEGDMVLSVAKLVPAGLHIYQSLGGDELTLCETEIADGEDIFVWNGVEVGGVHIQTGIDCEPLLLNVLHLDTSSDGEKCCQVIESPHVFPANAEVGTVLTALAIPAGVIFINSAGCPGGEGWTAIPKEDMRKTFREQGLRNGSSILIQDSHDDNSLLTKEEKWVTSMNEIDWLHVKNLCQLESEEKQVKISATVNTMVFDIRIKAIKELKLMKELADNSCLRPIDRNGKLLCPVPDSYTLKEAELKMGSSLGLCLGKAPSSSQLFLFFAMGSDVQPGTEMEIVVEETISVRDCLKLMLKKSGLQGDAWHLRKMDWCYEAGEPLCEEDATLKELLICSGDTLLLIEGQLPPLGFLKVPIWWYQLQGPSGHWESHQDQTNCTSSWGRVWRATSSQGASGNEPAQVSLLYLGDIEISEDATLAELKSQAMTLPPFLEFGVPSPAHLRAWTVERKRPGRLLRTDRQPLREYKLGRRIEICLEPLQKGENLGPQDVLLRTQVRIPGERTYAPALDLVWNAAQGGTAGSLRQRVADFYRLPVEKIEIAKYFPEKFEWLPISSWNQQITKRKKKKKQDYLQGAPYYLKDGDTIGVKNLLIDDDDDFSTIRDDTGKEKQKQRALGRRKSQEALHEQSSYILSSAETPARPRAPETSLSIHVGSFR
As to B1, the binding result in experiment [2] is listed as “binds”.

B2: Flag-USP40 (in HLMVECs) (enzyme, UniProt Q9NVE5 1-1235)
chain: MFGDLFEEEYSTVSNNQYGKGKKLKTKALEPPAPREFTNLSGIRNQGGTCYLNSLLQTLHFTPEFREALFSLGPEELGLFEDKDKPDAKVRIIPLQLQRLFAQLLLLDQEAASTADLTDSFGWTSNEEMRQHDVQELNRILFSALETSLVGTSGHDLIYRLYHGTIVNQIVCKECKNVSERQEDFLDLTVAVKNVSGLEDALWNMYVEEEVFDCDNLYHCGTCDRLVKAAKSAKLRKLPPFLTVSLLRFNFDFVKCERYKETSCYTFPLRINLKPFCEQSELDDLEYIYDLFSVIIHKGGCYGGHYHVYIKDVDHLGNWQFQEEKSKPDVNLKDLQSEEEIDHPLMILKAILLEENNLIPVDQLGQKLLKKIGISWNKKYRKQHGPLRKFLQLHSQIFLLSSDESTVRLLKNSSLQAESDFQRNDQQIFKMLPPESPGLNNSISCPHWFDINDSKVQPIREKDIEQQFQGKESAYMLFYRKSQLQRPPEARANPRYGVPCHLLNEMDAANIELQTKRAECDSANNTFELHLHLGPQYHFFNGALHPVVSQTESVWDLTFDKRKTLGDLRQSIFQLLEFWEGDMVLSVAKLVPAGLHIYQSLGGDELTLCETEIADGEDIFVWNGVEVGGVHIQTGIDCEPLLLNVLHLDTSSDGEKCCQVIESPHVFPANAEVGTVLTALAIPAGVIFINSAGCPGGEGWTAIPKEDMRKTFREQGLRNGSSILIQDSHDDNSLLTKEEKWVTSMNEIDWLHVKNLCQLESEEKQVKISATVNTMVFDIRIKAIKELKLMKELADNSCLRPIDRNGKLLCPVPDSYTLKEAELKMGSSLGLCLGKAPSSSQLFLFFAMGSDVQPGTEMEIVVEETISVRDCLKLMLKKSGLQGDAWHLRKMDWCYEAGEPLCEEDATLKELLICSGDTLLLIEGQLPPLGFLKVPIWWYQLQGPSGHWESHQDQTNCTSSWGRVWRATSSQGASGNEPAQVSLLYLGDIEISEDATLAELKSQAMTLPPFLEFGVPSPAHLRAWTVERKRPGRLLRTDRQPLREYKLGRRIEICLEPLQKGENLGPQDVLLRTQVRIPGERTYAPALDLVWNAAQGGTAGSLRQRVADFYRLPVEKIEIAKYFPEKFEWLPISSWNQQITKRKKKKKQDYLQGAPYYLKDGDTIGVKNLLIDDDDDFSTIRDDTGKEKQKQRALGRRKSQEALHEQSSYILSSAETPARPRAPETSLSIHVGSFR
Regarding B2, the binding entry in experiment [2] is reported as “binds”.

B3: Flag-USP40 (in HEK293 cells) (enzyme, UniProt Q9NVE5 1-1235)
chain: MFGDLFEEEYSTVSNNQYGKGKKLKTKALEPPAPREFTNLSGIRNQGGTCYLNSLLQTLHFTPEFREALFSLGPEELGLFEDKDKPDAKVRIIPLQLQRLFAQLLLLDQEAASTADLTDSFGWTSNEEMRQHDVQELNRILFSALETSLVGTSGHDLIYRLYHGTIVNQIVCKECKNVSERQEDFLDLTVAVKNVSGLEDALWNMYVEEEVFDCDNLYHCGTCDRLVKAAKSAKLRKLPPFLTVSLLRFNFDFVKCERYKETSCYTFPLRINLKPFCEQSELDDLEYIYDLFSVIIHKGGCYGGHYHVYIKDVDHLGNWQFQEEKSKPDVNLKDLQSEEEIDHPLMILKAILLEENNLIPVDQLGQKLLKKIGISWNKKYRKQHGPLRKFLQLHSQIFLLSSDESTVRLLKNSSLQAESDFQRNDQQIFKMLPPESPGLNNSISCPHWFDINDSKVQPIREKDIEQQFQGKESAYMLFYRKSQLQRPPEARANPRYGVPCHLLNEMDAANIELQTKRAECDSANNTFELHLHLGPQYHFFNGALHPVVSQTESVWDLTFDKRKTLGDLRQSIFQLLEFWEGDMVLSVAKLVPAGLHIYQSLGGDELTLCETEIADGEDIFVWNGVEVGGVHIQTGIDCEPLLLNVLHLDTSSDGEKCCQVIESPHVFPANAEVGTVLTALAIPAGVIFINSAGCPGGEGWTAIPKEDMRKTFREQGLRNGSSILIQDSHDDNSLLTKEEKWVTSMNEIDWLHVKNLCQLESEEKQVKISATVNTMVFDIRIKAIKELKLMKELADNSCLRPIDRNGKLLCPVPDSYTLKEAELKMGSSLGLCLGKAPSSSQLFLFFAMGSDVQPGTEMEIVVEETISVRDCLKLMLKKSGLQGDAWHLRKMDWCYEAGEPLCEEDATLKELLICSGDTLLLIEGQLPPLGFLKVPIWWYQLQGPSGHWESHQDQTNCTSSWGRVWRATSSQGASGNEPAQVSLLYLGDIEISEDATLAELKSQAMTLPPFLEFGVPSPAHLRAWTVERKRPGRLLRTDRQPLREYKLGRRIEICLEPLQKGENLGPQDVLLRTQVRIPGERTYAPALDLVWNAAQGGTAGSLRQRVADFYRLPVEKIEIAKYFPEKFEWLPISSWNQQITKRKKKKKQDYLQGAPYYLKDGDTIGVKNLLIDDDDDFSTIRDDTGKEKQKQRALGRRKSQEALHEQSSYILSSAETPARPRAPETSLSIHVGSFR
For the molecule B3, the binding result in experiment [3], in experiment [4] and in experiment [5] was “binds” in each case.
